In article doi:10.1101/842682:
No constants are given. Whether binding was seen depends on the method and setting. In cells and extracts the contact can be indirect. Some binding calls cover weakened binding; strength is not graded here. Where a sequence is shown, tags or fusion partners need not be part of it.

Chains of the proteins cited; added tags and fusions are not shown. Residues count along the entry.
UniProt A2AUM9, residues 1075-1383: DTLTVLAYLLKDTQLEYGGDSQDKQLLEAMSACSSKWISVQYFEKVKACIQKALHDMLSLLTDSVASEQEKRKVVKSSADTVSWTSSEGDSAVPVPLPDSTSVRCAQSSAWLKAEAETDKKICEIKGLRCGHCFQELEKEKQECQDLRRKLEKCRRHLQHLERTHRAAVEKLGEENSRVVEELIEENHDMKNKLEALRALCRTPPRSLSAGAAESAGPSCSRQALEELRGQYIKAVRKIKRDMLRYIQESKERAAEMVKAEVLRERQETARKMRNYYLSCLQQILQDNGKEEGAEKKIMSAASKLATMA

Target: T1, His-Cep63 (UniProt Q3UPP8)
T1 sequence: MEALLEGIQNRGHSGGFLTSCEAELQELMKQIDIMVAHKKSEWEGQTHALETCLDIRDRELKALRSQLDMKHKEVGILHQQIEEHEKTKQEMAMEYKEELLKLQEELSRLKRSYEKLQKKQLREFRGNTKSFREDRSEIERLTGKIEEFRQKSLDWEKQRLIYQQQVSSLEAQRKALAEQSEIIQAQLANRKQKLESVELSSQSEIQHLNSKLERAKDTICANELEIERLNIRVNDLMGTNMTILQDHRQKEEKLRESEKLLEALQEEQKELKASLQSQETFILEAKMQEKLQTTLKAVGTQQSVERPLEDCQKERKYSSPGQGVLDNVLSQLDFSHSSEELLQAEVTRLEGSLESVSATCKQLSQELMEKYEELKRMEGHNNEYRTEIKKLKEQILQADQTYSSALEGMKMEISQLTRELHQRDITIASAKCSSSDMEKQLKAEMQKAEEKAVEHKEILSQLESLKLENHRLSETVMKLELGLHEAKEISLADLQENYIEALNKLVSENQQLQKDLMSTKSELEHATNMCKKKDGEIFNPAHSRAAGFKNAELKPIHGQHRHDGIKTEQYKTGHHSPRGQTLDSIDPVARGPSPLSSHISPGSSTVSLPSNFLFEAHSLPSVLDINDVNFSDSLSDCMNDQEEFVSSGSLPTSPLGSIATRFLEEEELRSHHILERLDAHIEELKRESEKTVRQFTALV
Assay: pull-down

In the case of “Cep152M (from UniProt A2AUM9 1075-1383) (domain or fragment)”, the binding is reported as “binds”.
